Source: PubChem BioAssay AID652272 (Drosophila RNAi Screening Center, 2013)
Purpose: 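Genome-wide knock-down search for components of Hedgehog signalling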 (primary screen). System: Drosophila clone 8 (Cl8) cells. Knock-down reagent: long dsRNA against Drosophila genes. Read-out: 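Firefly light from a Hedgehog-responsive ptc promoter reporter and Renilla reference light, both read on a plate reader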. Reading the numbers: firefly Hh reporter signal: higher = more ptc reporter light; Renilla reference signal: higher = more Renilla control light. Active means: 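Called a hit if the two-replicate mean z-score lies below -2 or above +3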. Meaning of the calls: active = hit: reporter lowered or raised; inactive = not a hit.
The screen tested about 21,000 reagents; below is a random part of those that have a named target and a result. In the full data, 503 (2.4%) got an active call. 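Raw plate light values, not normalised; calls rest on replicate z-scores that were not deposited; hits include reporter decreases as well as increases.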 Reagents against one gene are numbered here. Reagent sequences are not shown. Not given: the amount of reagent, the time to read-out.

predicted target	dsRNA no.	firefly Hh reporter signal, replicate 1	firefly Hh reporter signal, replicate 2	firefly Hh reporter signal, replicate 3	Renilla reference signal, replicate 1	Renilla reference signal, replicate 2	Call
CG8508	1	1.43e5	1.35e5		5261	5335	inactive
Scgdelta	1	73446	2.65e5		2058	10529	inactive
CG15452	1	75156	2.14e5		1656	8710	inactive
CG34367	1	1.22e5	58772		3368	6316	inactive
CG34367	2	86797	61417		2432	5349	inactive
Kul	1	66816	86107		1891	2695	inactive
orb	1	43927	25440		1848	1163	inactive
Gmppb	1	1.34e5	71817		5403	2840	inactive
Pih1D1	1	1.18e5	1.05e5		4848	4551	inactive
CR32745	1	4.28e5	1.51e5		23578	3008	inactive
CG2225	1	1.09e5	68506		4230	2436	inactive
CG2225	2	1.08e5	63808		2525	6290	inactive
CG4598	1	79996	44891		1945	4042	inactive
Lim1	1	1.14e5	1.16e5		2813	2765	inactive
Lim1	2	1.44e5	7.09e5	4.61e5	2938	7144	inactive
TotM	1	85787	47136		2853	5058	inactive
CR6900	1	69643	1.86e5		1752	8598	inactive
Fancm	1	1.05e5	82104		4711	3125	inactive
eIF2beta	1	4152	37461	58032	3495	4797	inactive
PolD1	1	84834			1386	2429	inactive
senju	1	1.79e5	66480		4480	6722	inactive
sl	1	74524	65347		1460	981	inactive
CG31265	1	59235	1.15e5		1456	2648	inactive
Rab4	1	89751	82448		4432	3511	inactive
Theg	1	1.09e5	76064		4311	2753	inactive
Idh3a	1	96893	1.78e5		3712	7016	inactive
CG12784	1	82633	83872		3033	2566	inactive
CG17078	1	1.28e5	90776		3088	1842	inactive
CG1722	1	91208	2.06e5		2793	8597	inactive

Records above whose gene name starts with L or l (2):
predicted target	dsRNA no.	firefly Hh reporter signal, replicate 1	firefly Hh reporter signal, replicate 2	firefly Hh reporter signal, replicate 3	Renilla reference signal, replicate 1	Renilla reference signal, replicate 2	Call
Lim1	1	1.14e5	1.16e5		2813	2765	inactive
Lim1	2	1.44e5	7.09e5	4.61e5	2938	7144	inactive

Next reagents follow:
predicted target	dsRNA no.	firefly Hh reporter signal, replicate 1	firefly Hh reporter signal, replicate 2	firefly Hh reporter signal, replicate 3	Renilla reference signal, replicate 1	Renilla reference signal, replicate 2	Call
CG5001	1	1.40e5	1.07e5		3591	2890	inactive
CG32833	1	98912	49403		3877	2026	inactive
CG13231	1	1.13e5	83056		1600	6203	inactive
Vmat	1	98259	59659		4328	2536	inactive
Vmat	2	1.23e5	62403		3148	5267	inactive
corolla	1	1.09e5	1.34e5		2466	2804	inactive
CG31559	1	69152	94218		2675	2709	inactive
CG31559	2	55497	1.05e5		2140	2778	inactive
Cisd2	1	98073	1.19e5		1933	2816	inactive
CG10866	1	1.05e5	47729		2346	3794	inactive
CG14605	1	58425	81972		2307	2298	inactive
CG31709	1	5.55e5	2.79e5		27522	11320	inactive
Agxt	1	73756	61830		1712	1511	inactive
Mitofilin	1	91832	71082		3804	2929	inactive
iotaTry	1	76512	44968		1910	3681	inactive
CG31495	1	1.06e5	65942		3513	1946	inactive
ppk13	1	85744	57351		2392	5116	inactive
CG30378	1	86000	1.87e5		7664	8442	inactive
CG13724	1	1.31e5			378	2088	inactive
Ugt307A1	1	1.27e5	78641		3319	6086	inactive
CG6843	1	1.05e5	1.66e5		3332	4616	inactive
psq	1	26784	11367		1467	691	inactive
t-Grip84	1	54594	56987		6435	4235	inactive
Acbp5	1	62064	55284		6121	4152	inactive
CG1602	1	63828	45155		1520	4008	inactive
Myo95E	1	1.28e5	53392		4891	2443	inactive
inaC	1	85027	74290		3692	3209	inactive
Scr	1	34162	38285		1571	1648	inactive
